# Reference: the supplement of paper PMC10849652
# Chains of the proteins cited; added tags and fusions are not shown. Lines headed by an entry give the natural chain unless they say otherwise; changes in a name come on top.
# UniProt Q9C0K1: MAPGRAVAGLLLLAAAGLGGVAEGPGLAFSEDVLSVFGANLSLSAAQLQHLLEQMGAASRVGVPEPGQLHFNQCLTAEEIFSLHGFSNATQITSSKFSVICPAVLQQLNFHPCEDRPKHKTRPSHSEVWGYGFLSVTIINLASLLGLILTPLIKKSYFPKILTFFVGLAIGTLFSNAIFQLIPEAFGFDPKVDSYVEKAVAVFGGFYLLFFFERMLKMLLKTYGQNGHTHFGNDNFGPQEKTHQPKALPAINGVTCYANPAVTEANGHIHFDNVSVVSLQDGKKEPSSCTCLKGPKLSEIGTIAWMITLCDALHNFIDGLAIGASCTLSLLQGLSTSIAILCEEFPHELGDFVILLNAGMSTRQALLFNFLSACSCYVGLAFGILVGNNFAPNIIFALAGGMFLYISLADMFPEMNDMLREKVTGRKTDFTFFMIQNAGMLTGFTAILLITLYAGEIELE
# UniProt P78383: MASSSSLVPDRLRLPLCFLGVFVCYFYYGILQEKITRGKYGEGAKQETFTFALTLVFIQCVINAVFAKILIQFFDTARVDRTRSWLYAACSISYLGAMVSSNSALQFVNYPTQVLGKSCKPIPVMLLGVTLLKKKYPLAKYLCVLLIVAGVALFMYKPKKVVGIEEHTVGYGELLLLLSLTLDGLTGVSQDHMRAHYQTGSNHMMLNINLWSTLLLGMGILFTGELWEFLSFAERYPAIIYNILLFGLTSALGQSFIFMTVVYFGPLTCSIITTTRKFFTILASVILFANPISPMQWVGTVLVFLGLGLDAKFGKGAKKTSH
# UniProt Q9Y2D2: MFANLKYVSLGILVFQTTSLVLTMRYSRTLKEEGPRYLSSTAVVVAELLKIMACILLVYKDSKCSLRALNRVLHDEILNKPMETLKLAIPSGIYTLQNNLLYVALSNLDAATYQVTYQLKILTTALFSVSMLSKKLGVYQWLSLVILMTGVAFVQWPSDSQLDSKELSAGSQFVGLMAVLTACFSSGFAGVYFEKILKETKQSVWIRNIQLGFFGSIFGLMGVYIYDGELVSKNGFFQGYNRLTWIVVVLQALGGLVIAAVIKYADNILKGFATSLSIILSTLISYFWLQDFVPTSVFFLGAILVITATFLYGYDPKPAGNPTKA
# UniProt Q99717: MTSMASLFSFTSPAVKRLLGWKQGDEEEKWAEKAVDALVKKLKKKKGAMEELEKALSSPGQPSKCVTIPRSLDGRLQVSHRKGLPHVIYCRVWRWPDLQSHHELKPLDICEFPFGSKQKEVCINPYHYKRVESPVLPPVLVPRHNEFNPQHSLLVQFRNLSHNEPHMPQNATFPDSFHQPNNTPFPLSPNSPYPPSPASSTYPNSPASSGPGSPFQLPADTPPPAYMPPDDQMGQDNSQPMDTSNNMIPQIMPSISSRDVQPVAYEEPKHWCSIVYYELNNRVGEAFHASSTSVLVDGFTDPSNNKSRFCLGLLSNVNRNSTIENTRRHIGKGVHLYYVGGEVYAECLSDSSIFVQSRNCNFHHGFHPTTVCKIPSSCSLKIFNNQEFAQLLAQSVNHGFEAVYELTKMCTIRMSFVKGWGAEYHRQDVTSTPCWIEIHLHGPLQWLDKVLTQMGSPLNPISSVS
# UniProt Q3KQZ1: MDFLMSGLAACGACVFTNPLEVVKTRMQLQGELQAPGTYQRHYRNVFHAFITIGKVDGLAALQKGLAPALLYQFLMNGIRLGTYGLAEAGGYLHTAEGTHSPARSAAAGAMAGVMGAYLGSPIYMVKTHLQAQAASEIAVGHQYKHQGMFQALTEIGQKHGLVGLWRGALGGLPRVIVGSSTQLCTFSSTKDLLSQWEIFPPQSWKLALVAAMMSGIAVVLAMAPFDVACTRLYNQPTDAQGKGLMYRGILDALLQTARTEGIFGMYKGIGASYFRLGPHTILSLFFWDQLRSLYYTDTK
# UniProt Q96CQ1: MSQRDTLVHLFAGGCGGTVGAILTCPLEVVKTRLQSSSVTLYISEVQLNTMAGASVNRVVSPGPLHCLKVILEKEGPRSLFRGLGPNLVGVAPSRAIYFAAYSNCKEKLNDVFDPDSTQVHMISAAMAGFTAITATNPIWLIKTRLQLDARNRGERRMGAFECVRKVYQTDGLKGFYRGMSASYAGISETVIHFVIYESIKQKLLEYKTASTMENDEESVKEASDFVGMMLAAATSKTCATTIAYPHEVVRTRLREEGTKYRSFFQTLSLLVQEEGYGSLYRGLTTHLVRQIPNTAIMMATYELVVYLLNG
# UniProt Q9NP59: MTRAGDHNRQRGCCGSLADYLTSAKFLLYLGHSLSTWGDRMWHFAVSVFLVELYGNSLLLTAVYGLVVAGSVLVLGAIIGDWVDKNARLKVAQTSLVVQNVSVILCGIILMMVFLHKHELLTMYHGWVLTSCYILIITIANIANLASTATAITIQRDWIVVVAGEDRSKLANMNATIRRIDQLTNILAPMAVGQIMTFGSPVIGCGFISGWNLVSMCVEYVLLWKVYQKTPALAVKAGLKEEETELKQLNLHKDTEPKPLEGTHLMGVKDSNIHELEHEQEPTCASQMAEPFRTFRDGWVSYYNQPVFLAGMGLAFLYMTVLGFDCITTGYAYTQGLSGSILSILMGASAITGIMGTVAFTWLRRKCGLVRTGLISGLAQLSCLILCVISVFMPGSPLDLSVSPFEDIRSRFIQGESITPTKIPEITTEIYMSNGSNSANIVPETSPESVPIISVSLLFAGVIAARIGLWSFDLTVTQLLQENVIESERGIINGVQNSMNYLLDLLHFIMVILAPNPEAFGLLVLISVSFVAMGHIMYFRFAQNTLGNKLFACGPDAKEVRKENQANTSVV
# UniProt O95391: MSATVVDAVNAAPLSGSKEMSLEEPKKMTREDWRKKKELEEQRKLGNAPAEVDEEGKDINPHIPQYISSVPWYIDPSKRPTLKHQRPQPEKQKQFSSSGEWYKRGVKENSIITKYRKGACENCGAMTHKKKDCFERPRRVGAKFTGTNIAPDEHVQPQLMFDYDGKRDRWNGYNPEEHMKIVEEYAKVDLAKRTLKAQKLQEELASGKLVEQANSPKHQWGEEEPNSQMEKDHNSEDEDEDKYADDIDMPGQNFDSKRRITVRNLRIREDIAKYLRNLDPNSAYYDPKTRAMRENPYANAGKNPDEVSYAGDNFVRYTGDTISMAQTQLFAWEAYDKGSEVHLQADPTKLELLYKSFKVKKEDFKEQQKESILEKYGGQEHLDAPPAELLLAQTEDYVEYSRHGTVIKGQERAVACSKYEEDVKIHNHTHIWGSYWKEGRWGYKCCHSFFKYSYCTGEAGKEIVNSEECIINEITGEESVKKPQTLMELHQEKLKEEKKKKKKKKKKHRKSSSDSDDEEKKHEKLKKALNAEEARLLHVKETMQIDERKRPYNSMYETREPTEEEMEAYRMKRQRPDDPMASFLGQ
# UniProt Q9UGH3: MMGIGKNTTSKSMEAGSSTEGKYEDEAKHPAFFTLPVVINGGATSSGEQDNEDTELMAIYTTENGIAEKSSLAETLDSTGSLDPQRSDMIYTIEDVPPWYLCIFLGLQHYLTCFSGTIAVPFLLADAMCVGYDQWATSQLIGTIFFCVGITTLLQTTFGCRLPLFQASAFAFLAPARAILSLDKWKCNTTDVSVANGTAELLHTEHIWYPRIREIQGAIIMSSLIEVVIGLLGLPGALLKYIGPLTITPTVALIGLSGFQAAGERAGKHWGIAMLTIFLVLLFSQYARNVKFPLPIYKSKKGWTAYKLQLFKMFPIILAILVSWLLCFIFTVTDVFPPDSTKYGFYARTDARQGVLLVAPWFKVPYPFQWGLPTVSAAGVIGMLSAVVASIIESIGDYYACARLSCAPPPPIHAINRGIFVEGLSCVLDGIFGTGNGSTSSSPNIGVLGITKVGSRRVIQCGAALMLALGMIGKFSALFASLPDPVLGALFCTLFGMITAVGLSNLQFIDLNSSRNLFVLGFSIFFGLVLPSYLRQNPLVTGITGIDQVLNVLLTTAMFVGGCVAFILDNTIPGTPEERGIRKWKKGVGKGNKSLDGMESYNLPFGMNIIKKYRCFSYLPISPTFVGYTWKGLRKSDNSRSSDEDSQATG
# UniProt Q96GZ6: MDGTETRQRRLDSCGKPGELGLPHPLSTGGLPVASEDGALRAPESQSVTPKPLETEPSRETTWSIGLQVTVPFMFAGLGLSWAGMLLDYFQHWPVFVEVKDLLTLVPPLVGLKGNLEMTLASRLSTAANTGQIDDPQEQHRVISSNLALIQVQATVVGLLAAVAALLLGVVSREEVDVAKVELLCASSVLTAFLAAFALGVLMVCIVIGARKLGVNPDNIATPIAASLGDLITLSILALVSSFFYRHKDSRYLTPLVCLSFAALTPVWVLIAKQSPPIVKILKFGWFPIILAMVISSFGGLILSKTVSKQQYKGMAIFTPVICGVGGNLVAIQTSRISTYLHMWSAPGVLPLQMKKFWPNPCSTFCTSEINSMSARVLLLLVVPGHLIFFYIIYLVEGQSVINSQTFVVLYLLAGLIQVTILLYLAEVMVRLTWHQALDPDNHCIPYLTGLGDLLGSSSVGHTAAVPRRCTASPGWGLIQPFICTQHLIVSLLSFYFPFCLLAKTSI
# UniProt Q8IVJ1: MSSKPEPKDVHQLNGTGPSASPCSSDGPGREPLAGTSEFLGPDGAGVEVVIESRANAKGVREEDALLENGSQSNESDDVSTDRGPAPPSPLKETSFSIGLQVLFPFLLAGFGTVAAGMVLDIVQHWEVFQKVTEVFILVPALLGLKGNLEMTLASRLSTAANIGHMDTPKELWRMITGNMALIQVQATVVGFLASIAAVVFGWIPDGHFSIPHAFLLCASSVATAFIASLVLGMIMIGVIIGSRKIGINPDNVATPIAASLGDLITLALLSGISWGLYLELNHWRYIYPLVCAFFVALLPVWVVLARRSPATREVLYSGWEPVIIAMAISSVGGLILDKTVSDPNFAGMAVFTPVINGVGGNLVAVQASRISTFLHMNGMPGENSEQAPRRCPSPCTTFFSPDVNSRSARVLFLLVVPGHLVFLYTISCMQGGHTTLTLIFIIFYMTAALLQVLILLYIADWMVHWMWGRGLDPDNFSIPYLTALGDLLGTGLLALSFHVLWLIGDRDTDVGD
# UniProt Q0VAQ4: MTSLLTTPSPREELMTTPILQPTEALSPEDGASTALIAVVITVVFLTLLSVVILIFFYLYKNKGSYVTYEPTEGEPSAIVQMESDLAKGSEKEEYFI
# UniProt P0C7P3: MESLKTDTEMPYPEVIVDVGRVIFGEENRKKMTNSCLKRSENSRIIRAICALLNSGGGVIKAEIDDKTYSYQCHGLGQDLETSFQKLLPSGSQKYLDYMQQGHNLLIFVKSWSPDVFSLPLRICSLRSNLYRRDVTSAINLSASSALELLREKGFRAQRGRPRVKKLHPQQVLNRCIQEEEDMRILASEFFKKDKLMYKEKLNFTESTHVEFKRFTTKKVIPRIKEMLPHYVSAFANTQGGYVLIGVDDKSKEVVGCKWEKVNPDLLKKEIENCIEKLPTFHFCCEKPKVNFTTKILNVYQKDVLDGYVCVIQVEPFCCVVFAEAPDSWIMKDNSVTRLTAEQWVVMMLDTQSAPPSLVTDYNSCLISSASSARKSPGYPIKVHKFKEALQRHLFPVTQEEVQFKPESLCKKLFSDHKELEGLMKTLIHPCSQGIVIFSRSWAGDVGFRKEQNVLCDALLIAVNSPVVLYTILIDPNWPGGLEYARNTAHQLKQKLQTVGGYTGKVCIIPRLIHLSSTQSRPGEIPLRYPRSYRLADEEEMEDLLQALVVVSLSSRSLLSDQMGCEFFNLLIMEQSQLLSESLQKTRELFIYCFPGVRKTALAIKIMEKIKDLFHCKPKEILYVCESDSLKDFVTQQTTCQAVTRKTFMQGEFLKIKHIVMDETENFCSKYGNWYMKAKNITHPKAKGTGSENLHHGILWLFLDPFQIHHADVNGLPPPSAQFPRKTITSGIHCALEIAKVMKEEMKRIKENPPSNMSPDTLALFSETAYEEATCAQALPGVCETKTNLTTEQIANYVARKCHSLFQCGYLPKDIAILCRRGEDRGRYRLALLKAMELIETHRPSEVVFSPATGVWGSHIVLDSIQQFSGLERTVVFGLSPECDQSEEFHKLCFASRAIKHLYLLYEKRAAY
# UniProt Q8N755: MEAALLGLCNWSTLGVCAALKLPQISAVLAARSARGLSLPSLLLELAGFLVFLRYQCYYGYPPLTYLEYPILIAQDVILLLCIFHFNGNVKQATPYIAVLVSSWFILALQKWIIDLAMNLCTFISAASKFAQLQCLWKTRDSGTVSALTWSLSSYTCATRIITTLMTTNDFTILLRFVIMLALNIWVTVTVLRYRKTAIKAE
# UniProt P78382: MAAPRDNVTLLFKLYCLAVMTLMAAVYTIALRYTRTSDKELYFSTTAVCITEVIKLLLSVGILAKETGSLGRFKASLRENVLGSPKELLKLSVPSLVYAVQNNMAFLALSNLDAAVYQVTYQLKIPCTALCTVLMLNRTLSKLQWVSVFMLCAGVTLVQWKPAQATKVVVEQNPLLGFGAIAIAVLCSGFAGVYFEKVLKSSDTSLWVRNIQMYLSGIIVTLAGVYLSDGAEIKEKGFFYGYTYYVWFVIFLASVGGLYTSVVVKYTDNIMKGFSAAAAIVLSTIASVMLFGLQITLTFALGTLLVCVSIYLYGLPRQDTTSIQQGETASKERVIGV
# Some of the results follow.
# Compound: Cc1cc(Nc2cc(N3CCN(C)CC3)nc(Sc3ccc(NC(=O)C4CC4)cc3)n2)n[nH]1 [tozasertib]
# Experiment: log2 fold change, soluble protein after heating vs DMSO (PISA); higher = thermal stabilisation; K562 lysate, 10 uM; active = over 0.2 and 3.5 SD of the protein, either way, in both replicates (recomputed)
# Summary of the method: (§1)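 Pellets of K562 cells were dounce-homogenised in PBS pH 7.4 with 1 mM MgCl2, and the crude extract was held at 1 mg/mL protein for a 30 min treatment with 10 μM compound. Aliquots were heated for 3 min over 48°C-58°C and pooled before NP-40 was added to 0.5% at 4°C. The supernatant from 21,000xg for 90 min was quantified by TMTpro 16plex LC-MS/MS with channel sums equalised. Values are reported from duplicates as log-two fold change in thermal stability relative to solvent controls.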
row,Target,log2 fold change
1,SLC39A8 (UniProt Q9C0K1),inactive: -0.013
2,SLCO2B1 (UniProt O94956),inactive: 0.153
3,SLC35B1 isoform 2 (UniProt P78383),inactive: 0.032
4,SLC35A3 isoform 2 (UniProt Q9Y2D2),inactive: 0.032
5,SMAD5 (UniProt Q99717),inactive: 0.128
6,SLC25A35 (UniProt Q3KQZ1),inactive: 0.037
7,SLC25A36 (UniProt Q96CQ1),inactive: -0.09
8,SLC40A1 (UniProt Q9NP59),inactive: -0.035
9,SLU7 (UniProt O95391),inactive: 0.028
10,SLC35E2B (UniProt P0CK96),inactive: -0.006
11,SLC23A2 (UniProt Q9UGH3),inactive: 0.105
12,SLC41A3 isoform 9 (UniProt Q96GZ6),inactive: 0.063
13,SLC41A1 (UniProt Q8IVJ1),inactive: -0.016
14,SLC2A13 (UniProt Q96QE2),inactive: -0.016
15,SMAGP (UniProt Q0VAQ4),inactive: -0.051
16,SLFN14 (UniProt P0C7P3),inactive: -0.044
17,SLC25A28 (UniProt Q96A46),inactive: -0.014
18,SLC66A2 (UniProt Q8N2U9),inactive: 0.038

# Compound: Cc1ccc(-n2nc(C(C)(C)C)cc2NC(=O)Nc2ccc(OCCN3CCOCC3)c3ccccc23)cc1 [doramapimod]
# Experiment: as above
# Summary of the method: as §1
row,Target,log2 fold change
1,SLC39A8 (UniProt Q9C0K1),inactive: 0.057
2,SLC66A3 (UniProt Q8N755),inactive: -0.038
3,SLC35B1 isoform 2 (UniProt P78383),inactive: -0.102
4,SLC35A3 isoform 2 (UniProt Q9Y2D2),inactive: 0.095
5,SLC25A16 (UniProt P16260),inactive: -0.023
6,SMAD5 (UniProt Q99717),inactive: 0.126
7,SLC25A35 (UniProt Q3KQZ1),inactive: -0.102
8,SLC25A36 (UniProt Q96CQ1),inactive: -0.011
9,SLC40A1 (UniProt Q9NP59),inactive: -0.056
10,SLU7 (UniProt O95391),inactive: -0.099
11,SLC23A2 (UniProt Q9UGH3),inactive: -0.09
12,SLC26A11 (UniProt Q86WA9),inactive: 0.171
13,SLC9B2 (UniProt Q86UD5),inactive: 0.173
14,SLC41A1 (UniProt Q8IVJ1),inactive: 0.01
15,SMAD3 (UniProt P84022),inactive: 0.024
16,SLC39A6 (UniProt Q13433),inactive: -0.057
17,SMAGP (UniProt Q0VAQ4),inactive: -0.087
18,SLFN14 (UniProt P0C7P3),inactive: 0.067
19,SLC35D1 (UniProt Q9NTN3),inactive: -0.022
20,SLC35A1 (UniProt P78382),inactive: 0.189
21,SLC29A3 (UniProt Q9BZD2),inactive: 0.052
22,SLC50A1 (UniProt Q9BRV3),inactive: 0.138
23,SLC25A28 (UniProt Q96A46),inactive: -0.016
24,SLC25A23 isoform 3 (UniProt Q9BV35),inactive: 0.037

# Compound: Cc1ccc(NC(=O)c2ccc(CN3CC[C@H](N(C)C)C3)c(C(F)(F)F)c2)cc1Nc1nccc(-c2cncnc2)n1 [bafetinib]
# Experiment: as above
# Summary of the method: as §1
row,Target,log2 fold change
1,SMAD5 (UniProt Q99717),inactive: -0.413
2,SLU7 (UniProt O95391),inactive: -0.267
3,SLC43A3 (UniProt Q8NBI5),inactive: -0.023
4,SLC41A3 isoform 9 (UniProt Q96GZ6),inactive: -0.078
5,SLFN14 (UniProt P0C7P3),inactive: 0.092
6,SLCO4A1 (UniProt Q96BD0),inactive: -0.334
7,SLC35A1 (UniProt P78382),inactive: -0.147
8,SLC66A2 (UniProt Q8N2U9),inactive: 0.012

# Compound: Cc1cccc(CC(=O)N2CCc3c2ccc(-c2cn(C)c4ncnc(N)c24)c3F)n1
# Experiment: as above
# Summary of the method: as §1
row,Target,log2 fold change
1,SLC46A1 (UniProt Q96NT5),inactive: 0.007
2,SLC39A8 (UniProt Q9C0K1),inactive: 0.085
3,SLC25A39 (UniProt Q9BZJ4),inactive: 0.253
4,SLCO2B1 (UniProt O94956),inactive: 0.05
5,SLC35B1 isoform 2 (UniProt P78383),inactive: 0.298
6,SLC35A3 isoform 2 (UniProt Q9Y2D2),inactive: 0.332
7,SLC25A16 (UniProt P16260),inactive: -0.033
8,SMAD5 (UniProt Q99717),inactive: -0.016
9,SLC25A35 (UniProt Q3KQZ1),inactive: 0.189
10,SLC25A36 (UniProt Q96CQ1),inactive: -0.006
11,SLC44A1 (UniProt Q8WWI5),inactive: 0.118
12,SLC40A1 (UniProt Q9NP59),inactive: 0.018
13,SLU7 (UniProt O95391),active: 0.367
14,SLC23A2 (UniProt Q9UGH3),inactive: 0.065
15,SLC26A11 (UniProt Q86WA9),inactive: 0.109
16,SLC41A3 isoform 9 (UniProt Q96GZ6),inactive: 0.182
17,SLC41A1 (UniProt Q8IVJ1),inactive: 0.113
18,SLC2A13 (UniProt Q96QE2),inactive: 0.032
19,SLC39A6 (UniProt Q13433),inactive: -0.268
20,SMAGP (UniProt Q0VAQ4),inactive: -0.014
21,SLFN14 (UniProt P0C7P3),inactive: 0.237
22,SLCO4A1 (UniProt Q96BD0),inactive: 0.012
23,SLC35A1 (UniProt P78382),inactive: 0.142
24,SLC29A3 (UniProt Q9BZD2),inactive: 0.101
25,SLC50A1 (UniProt Q9BRV3),inactive: 0.328
26,SLC25A23 isoform 3 (UniProt Q9BV35),inactive: -0.1
27,SLC8B1 (UniProt Q6J4K2),inactive: 0.221
